Measured values from article PMC6511843.
Results are given in words; binding and its absence hold for the method and conditions named. For some assays here: Binding seen in cells or lysates may run through a third protein. Some entries that bind do so weakly or less than the wild type. For some assays here: Tags and fused reporters may be left off the sequences shown. Values belong to the binder of their own block, whether it stands above or below them.

Assays:
[1] = molecular target: T1, Endogenous ELK-1 (human (endogenous in DU145)) (UniProt P19419); assay: co-IP; WCEs of DU145 cells, endogenous proteins; immunoprecipitates collected with control IgG or αELK-1 antibody; immunoblotting
T1 sequence: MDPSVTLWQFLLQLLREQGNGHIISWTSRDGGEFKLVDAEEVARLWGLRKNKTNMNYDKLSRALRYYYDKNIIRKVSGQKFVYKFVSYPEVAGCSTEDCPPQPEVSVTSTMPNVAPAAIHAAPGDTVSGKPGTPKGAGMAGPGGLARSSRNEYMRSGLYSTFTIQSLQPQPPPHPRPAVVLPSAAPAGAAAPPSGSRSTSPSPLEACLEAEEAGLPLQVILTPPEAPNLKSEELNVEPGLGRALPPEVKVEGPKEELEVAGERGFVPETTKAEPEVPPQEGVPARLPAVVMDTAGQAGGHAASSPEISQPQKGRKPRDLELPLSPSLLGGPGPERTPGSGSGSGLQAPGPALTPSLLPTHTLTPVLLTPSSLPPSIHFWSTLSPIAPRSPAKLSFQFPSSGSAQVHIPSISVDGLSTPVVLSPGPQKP

[2] = molecular target: T2, GST-USP17 (human) (UniProt Q6R6M4); assay: pull-down; GST or GST-USP17 fusions on glutathione agarose beads incubated with recombinant ELK-1, ELK-1 deletion mutants or ERK2; bound proteins detected by immunoblotting with an anti-His antibody; both purified
T2 sequence: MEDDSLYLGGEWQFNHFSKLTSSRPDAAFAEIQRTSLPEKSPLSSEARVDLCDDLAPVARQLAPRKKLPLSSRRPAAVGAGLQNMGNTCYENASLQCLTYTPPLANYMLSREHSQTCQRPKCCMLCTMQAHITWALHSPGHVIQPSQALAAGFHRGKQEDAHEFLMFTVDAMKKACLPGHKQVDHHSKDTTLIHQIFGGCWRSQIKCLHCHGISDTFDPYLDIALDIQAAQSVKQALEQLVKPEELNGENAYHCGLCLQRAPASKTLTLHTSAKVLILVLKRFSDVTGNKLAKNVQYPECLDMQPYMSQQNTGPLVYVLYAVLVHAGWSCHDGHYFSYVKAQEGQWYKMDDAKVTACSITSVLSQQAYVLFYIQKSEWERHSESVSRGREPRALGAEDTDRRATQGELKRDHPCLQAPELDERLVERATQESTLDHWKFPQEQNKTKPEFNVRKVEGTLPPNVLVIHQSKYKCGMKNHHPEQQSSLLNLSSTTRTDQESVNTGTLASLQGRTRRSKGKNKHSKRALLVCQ

binding [1]: binds
B1: Endogenous USP17 (enzyme, UniProt Q6R6M4 1-530)
chain: T2 sequence

binding [2]: binds
B2: recombinant ELK-1 (protein, UniProt P19419 1-428)
chain: T1 sequence
